Assay results: article PMC11241540
For at least one entry, the source does not settle the construct or the ends of the probe.

target: PrMADS11 (Pinus radiata D. Don) (UniProt A0A0R6IS23); test: EMSA; settings: unlabeled DNA reduces shifted band; LightShift Chemiluminescent EMSA kit: binding buffer, poly(dI-dC), glycerol (50% stock), NP-40 (1% stock), MgCl2 (100 mM stock); 20 fmol biotinylated DNA; recombinant protein; residues 1-165; protein details: His-tag (pET301/DEST, native stop codon removed); label: biotin

Binding result, binds:
CTTATCCATATTAGGACACC (double strand) [CARG1]
AAATCCATTATTATGAAAAC (double strand) [CARG6(1555)]
CTTATCCTTATAGAGAACAC (double strand)
AAATACTATATTTAGATCAA (double strand) [CARG3(466)]
